Experimental data: patent US20260232713A1, “PLECOMACROLIDE DERIVATIVES FOR MHC-I NEF DOWNMODULATION” (priority 2022, published 2026)

System: V-ATPase
Assay: Lysosomal acidification (Lysotracker mean fluorescence intensity) as indicator of V-ATPase activity in primary CD4+ T cells
Format: cell-based, human
Details: ratio V-ATPase (Lysotracker) IC50 to Nef IC50

Compound | Lys:Nef (neutralization window, fold-change between Nef and V-ATPase IC50s)
CC[C@H]1OC(=O)[C@H](C)[C@@H](O)[C@@H](C)C[C@@H](C)C(=O)/C=C/[C@H]1C [10-deoxymethynolide, reference compound] | 4.8 fold
C/C=C/[C@H]1O[C@@](O)([C@@H](C)[C@H](O)[C@H](C)[C@H]2OC(=O)/C(OC)=C/C(C)=C/[C@@H](C)[C@@H](O)[C@@H](C)[C@@H](O)[C@H](C)C/C(C)=C/C=C/[C@@H]2OC)C[C@@H](O[C@@H]2C[C@H](OC(C)=O)[C@@H](OC(N)=O)[C@H](C)O2)[C@@H]1C [Compound 12, 3′-Acetyl Concanamycin B] | 21 fold
C/C=C/[C@H]1O[C@@](O)([C@@H](C)[C@H](O)[C@H](C)[C@H]2OC(=O)/C(OC)=C/C(C)=C/[C@@H](C)[C@@H](O)[C@@H](CC)[C@@H](O)[C@H](C)C/C(C)=C/C=C/[C@@H]2OC)C[C@@H](O[C@@H]2C[C@H](OC(C)=O)[C@@H](OC(N)=O)[C@H](C)O2)[C@@H]1C [Compound 14, 3′-Acetyl CMA] | 19 fold
C[C@@H]1C[C@H](C)C[C@H](C)[C@@H](O)CC(=O)O[C@H]([C@@H]2CCC[C@H]2C(=O)O)C/C=C/C=C(/C#N)[C@H](O)[C@@H](C)C1 [Compound S2, Borrelidin, reference compound] | 1.5 fold
CO/C1=C\C(C)=C\[C@@H](C)[C@@H](O)[C@@H](C)C/C(C)=C/C=C/[C@H](OC)[C@@H]([C@@H](C)[C@@H](O)[C@H](C)[C@@]2(OC)C[C@@H](O)[C@H](C)C(C(C)C)O2)OC1=O (stereo partly shown) [Compound S4, Bafilomycin A2] | 2.3 fold
CO/C1=C\C(C)=C\[C@@H](C)[C@@H](O)[C@@H](C)C/C(C)=C/C=C/[C@H](OC)[C@@H]([C@@H](C)[C@@H](O)[C@H](C)[C@H]2C[C@@H](OC)[C@H](C)[C@@H](C(C)C)O2)OC1=O [Compound S6] | 2.7 fold
CCCCCCCCC(=O)O[C@@H]1C[C@](O)([C@@H](C)[C@H](O)[C@H](C)[C@H]2OC(=O)/C(OC)=C/C(C)=C/[C@@H](C)[C@@H](O)[C@@H](C)C/C(C)=C/C=C/[C@@H]2OC)O[C@H](C(C)C)[C@H]1C [Compound S11] | 1.2 fold
C=C/C=C/C(=O)O[C@@H]1C[C@](O)([C@@H](C)[C@H](O)[C@H](C)[C@H]2OC(=O)/C(OC)=C/C(C)=C/[C@@H](C)[C@@H](O)[C@@H](C)C/C(C)=C/C=C/[C@@H]2OC)O[C@H](C(C)C)[C@H]1C [Compound S12] | 1.5 fold
CO/C1=C\C(C)=C\[C@@H](C)[C@@H](OC(C)=O)[C@@H](C)C/C(C)=C/C=C/[C@H](OC)[C@@H]([C@@H](C)[C@@H](O)[C@H](C)[C@@]2(O)C[C@@H](OC(C)=O)[C@H](C)C(C(C)C)O2)OC1=O (stereo partly shown) [Compound S19] | 2.2 fold
C#CCCC(=O)O[C@@H]1C[C@H]([C@@H](C)[C@H](O)[C@H](C)[C@H]2OC(=O)/C(OC)=C/C(C)=C/[C@@H](C)[C@@H](O)[C@@H](C)C/C(C)=C/C=C/[C@@H]2OC)O[C@H](C(C)C)[C@H]1C [Compound S28] | 2.8 fold
C/C=C/CC(=O)O[C@@H]1C[C@](O)([C@@H](C)[C@H](O)[C@H](C)[C@H]2OC(=O)/C(OC)=C/C(C)=C/[C@@H](C)[C@@H](O)[C@@H](C)C/C(C)=C/C=C/[C@@H]2OC)OC(C(C)C)[C@H]1C (stereo partly shown) [Compound S29] | 2.0 fold
C/C=C/[C@H]1O[C@@](O)([C@@H](C)[C@H](O)[C@H](C)[C@H]2OC(=O)/C(OC)=C/C(C)=C/[C@@H](C)[C@@H](O)[C@@H](CC)[C@@H](O)[C@H](C)C/C(C)=C/C=C/[C@@H]2OC)C[C@@H](O[C@@H]2C[C@H](OC(C)=O)[C@@H](OC(C)=O)[C@H](C)O2)[C@@H]1C [Compound S48, 3′,4-diacetyl CMC] | 4.2 fold
C/C=C/[C@H]1O[C@@](O)([C@@H](C)[C@H](O)[C@H](C)[C@H]2OC(=O)/C(OC)=C/C(C)=C/[C@@H](C)[C@@H](O)[C@@H](CC)[C@@H](OC(C)=O)[C@H](C)C/C(C)=C/C=C/[C@@H]2OC)C[C@@H](O[C@@H]2C[C@H](OC(C)=O)[C@@H](OC(C)=O)[C@H](C)O2)[C@@H]1C [Compound S49, 3′,4′,9-triaceyl CMC] | 3.6 fold
C/C=C/[C@H]1O[C@@](O)([C@@H](C)[C@H](O)[C@H](C)[C@H]2OC(=O)/C(OC)=C/C(C)=C/[C@@H](C)[C@@H](O)[C@@H](CC)[C@@H](O)[C@H](C)C/C(C)=C/C=C/[C@@H]2OC)C[C@@H](OC(C)=O)[C@@H]1C [Compound S50, 23-Acetyl CMF] | 5.6 fold
CO/C1=C\C(C)=C\[C@@H](C)[C@@H](O)[C@@H](C)C/C(C)=C/C=C/[C@H](OC)[C@@H]([C@@H](C)[C@@H](O)[C@H](C)[C@@]2(O)C[C@@H](OC=O)[C@H](C)[C@@H](C(C)C)O2)OC1=O [Compound S61] | 3.6 fold
C/C=C/[C@H]1O[C@@H]([C@@H](C)[C@H](O)[C@H](C)[C@H]2OC(=O)/C(OC)=C/C(C)=C/[C@@H](C)[C@@H](O)[C@@H](CC)[C@@H](O)[C@H](C)C/C(C)=C/C=C/[C@@H]2OC)C[C@@H](O[C@@H]2C[C@H](O)[C@@H](O)[C@H](C)O2)[C@@H]1C [Compound S62, 21-Deoxy CMC] | 4.2 fold
